Measurements reported in PubChem BioAssay AID1259254 (NCATS, 2017).
Aim: 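Gene knock-downs that lead to re-replication, shown by excess G2 DNA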 (primary screen). System: human HCT116 colorectal cancer cells. Knock-down reagent: single siRNA against human genes. Duration: 3 days. Read-out: 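Nuclei stained with Hoechst and imaged; cell-cycle phase assigned by DNA content; G2 share scaled per plate, non-targeting siRNA 0%, GMNN siRNA 100%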. Reading the numbers: G2 robust z-score and G2 cells, % of GMNN control: higher = more G2 cells, more excess DNA replication. Active means: 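An siRNA counts as active if its G2 robust z-score lies at least 5 MADs above the screen median; here such calls match roughly 38% of GMNN control or more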.
In all, the deposit lists about 59,000 reagents; this is an unselected part. About 1,550 of all reagents (2.6%) count as active. 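G2 share is only a proxy for re-replication; each gene was hit by three separate siRNAs, and active genes were retested.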 Reagents against one gene are numbered here. Not all columns of the deposit are shown. No sequences are given here. Not stated in the record: the amount of reagent.

SCIN #1 | G2 robust z-score = 0.966; G2 cells, % of GMNN control = 9.77; call = inactive
SCIN #2 | G2 robust z-score = -0.725; G2 cells, % of GMNN control = -2.13; call = inactive
SCIN #3 | G2 robust z-score = -0.102; G2 cells, % of GMNN control = 2.25; call = inactive
FBXL9P #1 | G2 robust z-score = 1.51; G2 cells, % of GMNN control = 13.6; call = inactive
FBXL9P #2 | G2 robust z-score = 0.58; G2 cells, % of GMNN control = 7.05; call = inactive
FBXL9P #3 | G2 robust z-score = 0.202; G2 cells, % of GMNN control = 4.39; call = inactive
ANKRD16 #1 | G2 robust z-score = 0.908; G2 cells, % of GMNN control = 9.35; call = inactive
ANKRD16 #2 | G2 robust z-score = 2.82; G2 cells, % of GMNN control = 22.8; call = inactive
ANKRD16 #3 | G2 robust z-score = 1.37; G2 cells, % of GMNN control = 12.6; call = inactive
SLC26A1 #1 | G2 robust z-score = 3.06; G2 cells, % of GMNN control = 24.5; call = inactive
SLC26A1 #2 | G2 robust z-score = 4.19; G2 cells, % of GMNN control = 32.5; call = inactive
SLC26A1 #3 | G2 robust z-score = 2.33; G2 cells, % of GMNN control = 19.3; call = inactive
ATP8A2 #1 | G2 robust z-score = -0.499; G2 cells, % of GMNN control = -0.544; call = inactive
ATP8A2 #2 | G2 robust z-score = 2.69; G2 cells, % of GMNN control = 21.9; call = inactive
ATP8A2 #3 | G2 robust z-score = -0.423; G2 cells, % of GMNN control = -0.00573; call = inactive
RAB24 #1 | G2 robust z-score = -0.437; G2 cells, % of GMNN control = -0.106; call = inactive
RAB24 #2 | G2 robust z-score = -1.03; G2 cells, % of GMNN control = -4.27; call = inactive
RAB24 #3 | G2 robust z-score = 2.81; G2 cells, % of GMNN control = 22.8; call = inactive

No new results follow: 2 of the entries above.
ANKRD16 #3 | G2 robust z-score = 1.37; G2 cells, % of GMNN control = 12.6; call = inactive
SLC26A1 #1 | G2 robust z-score = 3.06; G2 cells, % of GMNN control = 24.5; call = inactive
